Chains of the proteins cited; added tags and fusions are not shown. Lines headed by an entry give the natural chain unless they say otherwise; changes in a name come on top.
UniProt O75164: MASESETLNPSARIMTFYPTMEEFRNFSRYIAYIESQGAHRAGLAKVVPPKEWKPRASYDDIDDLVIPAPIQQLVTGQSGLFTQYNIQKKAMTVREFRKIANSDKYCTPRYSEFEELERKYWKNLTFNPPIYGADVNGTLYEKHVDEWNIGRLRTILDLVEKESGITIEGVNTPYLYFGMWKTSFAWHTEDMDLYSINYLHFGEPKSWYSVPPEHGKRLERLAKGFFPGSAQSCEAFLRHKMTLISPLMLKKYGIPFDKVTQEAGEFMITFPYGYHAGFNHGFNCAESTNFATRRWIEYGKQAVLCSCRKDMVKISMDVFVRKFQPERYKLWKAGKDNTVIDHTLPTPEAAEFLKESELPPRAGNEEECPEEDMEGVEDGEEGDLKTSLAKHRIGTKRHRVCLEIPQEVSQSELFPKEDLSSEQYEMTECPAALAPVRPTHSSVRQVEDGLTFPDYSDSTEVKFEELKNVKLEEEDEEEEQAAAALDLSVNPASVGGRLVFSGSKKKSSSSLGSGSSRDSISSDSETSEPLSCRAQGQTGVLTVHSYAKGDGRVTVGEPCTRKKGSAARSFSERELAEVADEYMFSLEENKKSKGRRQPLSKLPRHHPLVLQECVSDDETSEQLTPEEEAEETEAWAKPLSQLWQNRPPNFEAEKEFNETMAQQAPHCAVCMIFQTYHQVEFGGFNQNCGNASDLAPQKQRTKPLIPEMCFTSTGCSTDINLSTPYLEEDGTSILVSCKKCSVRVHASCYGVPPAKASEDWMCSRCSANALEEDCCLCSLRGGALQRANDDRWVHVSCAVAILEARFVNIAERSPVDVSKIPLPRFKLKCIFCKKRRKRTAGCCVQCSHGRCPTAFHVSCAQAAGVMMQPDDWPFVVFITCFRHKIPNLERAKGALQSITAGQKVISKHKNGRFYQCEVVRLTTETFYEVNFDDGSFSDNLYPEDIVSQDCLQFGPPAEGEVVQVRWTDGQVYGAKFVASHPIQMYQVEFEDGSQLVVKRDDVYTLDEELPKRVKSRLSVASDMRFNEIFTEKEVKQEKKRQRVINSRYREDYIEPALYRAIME

The list shows a part of the results, in another mix than the full data. Results filed as inconclusive are left out. Activity calls are given as the source filed them. The call rests on the fitted dose curve; in most records, active means well fitted inhibition curve with a large enough effect; inconclusive means small, poorly fitted or top-dose-only effect; inactive means no such curve, though single readings can be large or run the other way.
Each compound was assayed against Lysine-specific demethylase 4A (Homo sapiens) (UniProt O75164) (assay: qHTS Assay for Inhibitors of JMJD2A-Tudor Domain). Conditions: AlphaScreen JMJD2A-Tudor / H3K4me3 peptide binding.
Description: JMJD2A is a jumonji-domain-containing lysine demethylase that uses Fe(II) together with 2-OG to effect oxidative demethylation of histones. Methylation is one of many […] modification that affect epigenetic transcription. […] It is proposed that the functions of JmjD2A binding to the histones, is to maintain marks after they are installed and to spread the modifications by […], establishing a self-propagating cycle for rapid methylation over a large area of chromatin. […] A quantitative high throughput AlphaScreen has been developed to identify small molecule inhibitors based on a protocol published by NCGC and SGC [4]. […]
[2] Yasgar, et al. Compound Management for Quantitative High-Throughput Screening. […]
[3] Inglese, et al. Quantitative high-throughput screening: a titration-based approach that efficiently identifies biological activities in large chemical libraries. […]
To each well of a 1,536w plate, 2ul of JMJD2A-Tudor (final 100nM) and 1ul biotinylated histone peptide methylated at Lys4 [b-H3(1-18)K4me3] […] Microplates were then read on an EnVision multilabel plate reader using the 1,536 plate HTS AlphaScreen aperture (excitation time 80 ms, measurement time 240 ms).
For O=C(O)COCCN1CCN(C(c2ccccc2)c2ccc(Cl)cc2)CC1 (stereo unspecified), the Potency was active: 79.4 µM.

Reference: PubChem BioAssay AID504339 (National Center for Advancing Translational Sciences (NCATS), 2011)
Further: nearly all actives have a fitted effect of over 50% in size.
Potency means the concentration at half of the fitted maximal effect.
